Reference: PMC8274477
No constants are given. Whether binding was seen depends on the method and setting. Some entries that bind do so weakly or less than the wild type.

The chains behind the UniProt entries cited, without tags or fusion partners. Residues count along the entry.
UniProt P46379: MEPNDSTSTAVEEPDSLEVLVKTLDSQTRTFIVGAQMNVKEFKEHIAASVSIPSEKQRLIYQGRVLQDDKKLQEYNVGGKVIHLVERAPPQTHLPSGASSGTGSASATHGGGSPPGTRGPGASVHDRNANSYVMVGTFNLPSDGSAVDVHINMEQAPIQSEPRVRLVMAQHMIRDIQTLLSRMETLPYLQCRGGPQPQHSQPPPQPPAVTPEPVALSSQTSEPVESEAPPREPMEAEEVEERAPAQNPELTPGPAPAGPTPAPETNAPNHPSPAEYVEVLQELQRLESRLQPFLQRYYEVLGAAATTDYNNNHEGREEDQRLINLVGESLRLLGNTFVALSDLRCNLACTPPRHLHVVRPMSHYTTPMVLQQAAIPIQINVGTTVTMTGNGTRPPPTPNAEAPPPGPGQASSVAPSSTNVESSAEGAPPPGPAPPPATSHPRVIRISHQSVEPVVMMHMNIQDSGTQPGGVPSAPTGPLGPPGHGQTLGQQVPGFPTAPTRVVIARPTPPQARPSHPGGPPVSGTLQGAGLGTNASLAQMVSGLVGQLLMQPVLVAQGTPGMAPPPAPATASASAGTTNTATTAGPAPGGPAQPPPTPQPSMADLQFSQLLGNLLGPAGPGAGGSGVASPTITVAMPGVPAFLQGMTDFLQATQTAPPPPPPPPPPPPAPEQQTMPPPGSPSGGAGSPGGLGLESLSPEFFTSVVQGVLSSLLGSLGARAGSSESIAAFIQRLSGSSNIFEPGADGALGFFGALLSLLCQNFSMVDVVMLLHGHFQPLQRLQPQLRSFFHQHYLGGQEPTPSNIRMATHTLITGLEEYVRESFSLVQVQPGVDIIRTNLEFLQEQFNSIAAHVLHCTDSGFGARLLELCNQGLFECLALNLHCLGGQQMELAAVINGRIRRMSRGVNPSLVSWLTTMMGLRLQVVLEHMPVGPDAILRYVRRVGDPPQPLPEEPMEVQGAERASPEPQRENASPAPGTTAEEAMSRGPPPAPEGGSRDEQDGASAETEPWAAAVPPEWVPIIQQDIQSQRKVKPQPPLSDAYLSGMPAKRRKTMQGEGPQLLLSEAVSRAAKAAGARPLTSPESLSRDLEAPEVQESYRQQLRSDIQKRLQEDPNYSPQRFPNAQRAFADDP
UniProt P25067, residues 29-703: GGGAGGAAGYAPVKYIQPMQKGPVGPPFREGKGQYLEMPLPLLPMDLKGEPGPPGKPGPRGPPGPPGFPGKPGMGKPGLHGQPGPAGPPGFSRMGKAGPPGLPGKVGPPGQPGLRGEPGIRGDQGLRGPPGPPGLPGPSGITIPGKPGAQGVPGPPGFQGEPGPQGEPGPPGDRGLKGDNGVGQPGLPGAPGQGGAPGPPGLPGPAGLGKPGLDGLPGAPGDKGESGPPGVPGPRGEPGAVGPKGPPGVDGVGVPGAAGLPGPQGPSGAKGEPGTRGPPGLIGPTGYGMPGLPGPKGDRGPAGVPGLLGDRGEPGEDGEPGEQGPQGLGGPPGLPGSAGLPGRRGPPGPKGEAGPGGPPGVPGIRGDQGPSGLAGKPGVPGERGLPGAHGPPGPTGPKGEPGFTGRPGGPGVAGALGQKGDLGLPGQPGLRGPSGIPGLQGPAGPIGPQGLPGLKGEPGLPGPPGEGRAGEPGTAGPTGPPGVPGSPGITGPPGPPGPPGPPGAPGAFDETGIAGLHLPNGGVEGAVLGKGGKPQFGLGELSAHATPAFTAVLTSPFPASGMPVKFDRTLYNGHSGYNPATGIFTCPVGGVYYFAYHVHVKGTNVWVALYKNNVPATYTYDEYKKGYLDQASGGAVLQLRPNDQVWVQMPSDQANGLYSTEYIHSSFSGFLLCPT

Experiments:
Assay in all cases: peptide or protein array; HuProt human proteome microarray; 5 ug/5 ml biotin-labelled LUBAC or OTULIN in solution, 1 h at room temperature; Cy5-streptavidin, scanned at 635 nm; BSA as negative control; hits: Z-score >= 3 and I_(Mean_Ratio) >= 1.4; both purified
BAG6 (human) = BAG6 (human) (UniProt P46379)
SHMT1 (human) = target: T1, SHMT1 (human) (UniProt P34896)
T1 sequence: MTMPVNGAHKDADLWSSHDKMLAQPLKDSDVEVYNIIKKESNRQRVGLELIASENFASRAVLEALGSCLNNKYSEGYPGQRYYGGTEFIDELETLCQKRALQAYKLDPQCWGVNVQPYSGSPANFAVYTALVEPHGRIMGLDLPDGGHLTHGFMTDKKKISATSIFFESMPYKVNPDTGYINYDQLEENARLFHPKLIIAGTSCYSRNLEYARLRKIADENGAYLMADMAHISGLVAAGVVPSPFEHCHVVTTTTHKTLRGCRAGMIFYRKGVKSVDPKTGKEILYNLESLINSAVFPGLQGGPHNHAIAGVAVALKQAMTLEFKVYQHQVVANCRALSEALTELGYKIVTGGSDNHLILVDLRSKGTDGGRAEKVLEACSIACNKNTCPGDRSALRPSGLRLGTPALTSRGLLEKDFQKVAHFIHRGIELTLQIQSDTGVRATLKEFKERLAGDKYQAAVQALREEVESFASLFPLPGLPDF

COL8A2 (human) = COL8A2 (human) (UniProt P25067)
KHDRBS3 (human) = target: T2, KHDRBS3 (human) (UniProt O75525)
T2 sequence: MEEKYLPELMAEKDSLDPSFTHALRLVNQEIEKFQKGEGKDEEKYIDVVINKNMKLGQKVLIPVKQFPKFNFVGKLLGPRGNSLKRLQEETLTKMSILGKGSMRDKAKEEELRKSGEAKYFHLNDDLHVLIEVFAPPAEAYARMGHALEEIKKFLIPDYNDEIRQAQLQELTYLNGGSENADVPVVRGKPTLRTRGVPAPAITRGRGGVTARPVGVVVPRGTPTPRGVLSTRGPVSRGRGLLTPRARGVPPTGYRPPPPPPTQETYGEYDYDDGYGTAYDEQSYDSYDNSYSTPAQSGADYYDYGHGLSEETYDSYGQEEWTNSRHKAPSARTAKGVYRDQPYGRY

DNALI1 (human) = target: T3, DNALI1 (human) (UniProt O14645)
T3 sequence: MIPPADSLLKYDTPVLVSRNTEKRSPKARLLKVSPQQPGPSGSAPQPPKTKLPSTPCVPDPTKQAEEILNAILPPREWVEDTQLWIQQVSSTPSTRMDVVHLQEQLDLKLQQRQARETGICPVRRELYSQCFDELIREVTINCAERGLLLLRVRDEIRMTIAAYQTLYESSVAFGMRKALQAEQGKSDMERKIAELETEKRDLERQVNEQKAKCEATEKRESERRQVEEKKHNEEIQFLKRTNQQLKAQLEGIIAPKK

PFKP (human) = target: T4, PFKP (human) (UniProt Q01813)
T4 sequence: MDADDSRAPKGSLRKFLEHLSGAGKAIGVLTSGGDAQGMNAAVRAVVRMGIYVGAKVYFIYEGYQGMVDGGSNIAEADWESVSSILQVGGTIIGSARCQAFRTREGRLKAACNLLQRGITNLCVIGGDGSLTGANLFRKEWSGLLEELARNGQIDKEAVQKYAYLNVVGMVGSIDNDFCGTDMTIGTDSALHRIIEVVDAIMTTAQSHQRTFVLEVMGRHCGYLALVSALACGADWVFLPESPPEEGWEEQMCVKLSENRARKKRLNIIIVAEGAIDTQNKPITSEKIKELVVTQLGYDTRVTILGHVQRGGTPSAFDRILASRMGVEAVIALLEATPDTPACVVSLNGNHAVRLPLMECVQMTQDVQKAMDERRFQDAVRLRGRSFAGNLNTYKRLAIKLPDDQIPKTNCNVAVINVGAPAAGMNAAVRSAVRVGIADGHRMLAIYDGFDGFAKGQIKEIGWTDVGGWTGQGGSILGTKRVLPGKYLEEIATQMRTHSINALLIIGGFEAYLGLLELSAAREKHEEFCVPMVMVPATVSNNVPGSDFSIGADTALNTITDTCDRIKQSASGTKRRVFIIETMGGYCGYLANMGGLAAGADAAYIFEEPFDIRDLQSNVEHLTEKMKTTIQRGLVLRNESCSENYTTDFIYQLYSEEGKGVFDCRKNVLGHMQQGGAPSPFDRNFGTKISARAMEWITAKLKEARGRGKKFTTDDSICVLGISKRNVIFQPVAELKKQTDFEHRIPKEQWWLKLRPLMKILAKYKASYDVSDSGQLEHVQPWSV

Measured: binding

linear ubiquitin chain assembly complex (LUBAC), purified as HIS-tagged HOIP with the subunit HOIL-1, biotin-labelled (from UniProt Q96EP0 1-1072; Q9BYM8 1-510)
binds: all assays above
